Measurements taken from publication PMC10760242.
These are yes or no findings as the source states them, for the method shown. In cells and extracts the contact can be indirect. Some entries that bind do so weakly or less than the wild type.

Key:
[1] = target: mCherry-labeled Keratin 14 (K14) (UniProt P02533); experiment: co-IP; IP with anti-mCherry antibody from lysates of UM-UC5 and UM-UC14 cells expressing K14-mCherry, immunoblot; control cells lacking K14-mCherry; lysates also treated with TCEP (interaction reduced)
[2] = target: T1, mCherry-labeled Keratin 14 (K14), P02533; experiment: as above; details: remark: other sources report otherwise
T1 chain: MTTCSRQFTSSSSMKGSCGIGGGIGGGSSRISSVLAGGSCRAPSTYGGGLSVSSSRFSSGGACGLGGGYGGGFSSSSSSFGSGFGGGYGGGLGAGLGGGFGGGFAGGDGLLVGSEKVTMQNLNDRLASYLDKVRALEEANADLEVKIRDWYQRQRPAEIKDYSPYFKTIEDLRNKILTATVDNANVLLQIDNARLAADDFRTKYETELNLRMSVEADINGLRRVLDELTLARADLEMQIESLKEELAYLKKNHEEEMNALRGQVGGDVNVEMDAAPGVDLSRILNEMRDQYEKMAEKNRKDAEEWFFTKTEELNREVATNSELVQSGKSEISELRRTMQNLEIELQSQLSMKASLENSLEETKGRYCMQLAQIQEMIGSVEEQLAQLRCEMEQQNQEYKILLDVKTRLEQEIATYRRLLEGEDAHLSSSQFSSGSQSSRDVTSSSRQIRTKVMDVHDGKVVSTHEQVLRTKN

| Binder | binding [1] | binding [2] |
| --- | --- | --- |
| Tripartite Motif-containing protein 29 (TRIM29) (protein, UniProt Q14134 1-588) MEAADASRSNGSSPEARDARSPSGPSGSLENGTKADGKDAKTTNGHGGEAAEGKSLGSALKPGEGRSALFAGNEWRRPIIQFVESGDDKNSNYFSMDSMEGKRSPYAGLQLGAAKKPPVTFAEKGELRKSIFSESRKPTVSIMEPGETRRNSYPRADTGLFSRSKSGSEEVLCDSCIGNKQKAVKSCLVCQASFCELHLKPHLEGAAFRDHQLLEPIRDFEARKCPVHGKTMELFCQTDQTCICYLCMFQEHKNHSTVTVEEAKAEKETELSLQKEQLQLKIIEIEDEAEKWQKEKDRIKSFTTNEKAILEQNFRDLVRDLEKQKEEVRAALEQREQDAVDQVKVIMDALDERAKVLHEDKQTREQLHSISDSVLFLQEFGALMSNYSLPPPLPTYHVLLEGEGLGQSLGNFKDDLLNVCMRHVEKMCKADLSRNFIERNHMENGGDHRYVNNYTNSFGGEWSAPDTMKRYSMYLTPKGGVRTSYQPSSPGRFTKETTQKNFNNLYGTKGNYTSRVWEYSSSIQNSDNDLPVVQGSSSFSLKGYPSLMRSQSPKAQPQTWKSGKQTMLSHYRPFYVNKGNGIGSNEAP | binds | – |
| FAM83H, Q6ZRV2 1-1179 (protein) MARRSQSSSQGDNPLAPGYLPPHYKEYYRLAVDALAEGGSEAYSRFLATEGAPDFLCPEELEHVSRHLRPPQYVTREPPEGSLLDVDMDGSSGTYWPVNSDQAVPELDLGWPLTFGFQGTEVTTLVQPPPPDSPSIKDEARRMIRSAQQVVAVVMDMFTDVDLLSEVLEAAARRVPVYILLDEMNAQHFLDMADKCRVNLQHVDFLRVRTVAGPTYYCRTGKSFKGHVKEKFLLVDCAVVMSGSYSFMWSFEKIHRSLAHVFQGELVSSFDEEFRILFAQSEPLVPSAAALARMDAYALAPYAGAGPLVGVPGVGAPTPFSFPKRAHLLFPPPREEGLGFPSFLDPDRHFLSAFRREEPPRMPGGALEPHAGLRPLSRRLEAEAGPAGELAGARGFFQARHLEMDAFKRHSFATEGAGAVENFAAARQVSRQTFLSHGDDFRFQTSHFHRDQLYQQQYQWDPQLTPARPQGLFEKLRGGRAGFADPDDFTLGAGPRFPELGPDGHQRLDYVPSSASREVRHGSDPAFAPGPRGLEPSGAPRPNLTQRFPCQAAARPGPDPAPEAEPERRGGPEGRAGLRRWRLASYLSGCHGEDGGDDGLPAPMEAEAYEDDVLAPGGRAPAGDLLPSAFRVPAAFPTKVPVPGPGSGGNGPEREGPEEPGLAKQDSFRSRLNPLVQRSSRLRSSLIFSTSQAEGAAGAAAATEKVQLLHKEQTVSETLGPGGEAVRSAASTKVAELLEKYKGPARDPGGGAGAITVASHSKAVVSQAWREEVAAPGAVGGERRSLESCLLDLRDSFAQQLHQEAERQPGAASLTAAQLLDTLGRSGSDRLPSRFLSAQSHSTSPQGLDSPLPLEGSGAHQVLHNESKGSPTSAYPERKGSPTPGFSTRRGSPTTGFIEQKGSPTSAYPERRGSPVPPVPERRSSPVPPVPERRGSLTLTISGESPKAGPAEEGPSGPMEVLRKGSLRLRQLLSPKGERRMEDEGGFPVPQENGQPESPRRLSLGQGDSTEAATEERGPRARLSSATANALYSSNLRDDTKAILEQISAHGQKHRAVPAPSPGPTHNSPELGRPPAAGVLAPDMSDKDKCSAIFRSDSLGTQGRLSRTLPASAEERDRLLRRMESMRKEKRVYSRFEVFCKKEEASSPGAGEGPAEEGTRDSKVGKFVPKILGTFKSKK | – | no binding |
